These are yes or no findings as the source states them, for the method shown. Some results given as binding are weak or reduced against the parent protein; the word gives no strength.
Target: T1, PP2Ac sequence bound by SET, … (SEQ ID NO: 1) (human)
T1 sequence (peptide): ETVTLLVALKVRYRERIT
Test: SPOT peptide array on cellulose membrane, recombinant SET probe, anti-SET antibody, ECL

Protein sequences, listed by entry. Tags and fused reporters are not part of them. Lines headed by an entry give the natural chain unless they say otherwise; changes in a name come on top. Chains listed by the source or under a name are the forms on record and can include a tag or linker.
SET protein (purified recombinant) (Q01105, form named): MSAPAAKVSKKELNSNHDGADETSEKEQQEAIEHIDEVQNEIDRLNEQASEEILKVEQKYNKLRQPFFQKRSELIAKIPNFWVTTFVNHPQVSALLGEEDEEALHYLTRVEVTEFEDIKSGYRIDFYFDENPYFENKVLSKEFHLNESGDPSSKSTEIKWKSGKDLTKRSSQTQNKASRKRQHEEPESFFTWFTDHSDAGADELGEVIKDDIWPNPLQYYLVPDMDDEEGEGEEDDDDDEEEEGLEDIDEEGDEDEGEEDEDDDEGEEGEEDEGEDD

SET protein (purified recombinant) (from UniProt Q01105 1-277)
binding: binds

Source: patent US20180066241A1, “PRO-APOPTOTIC SET AND PP2A PEPTIDES” (Universite Pierre Et Marie Curie (Paris 6), priority 2015, published 2018)
